Data from article PMC9113918.
No constants are given. Whether binding was seen depends on the method and setting. For part of these data: In cells and extracts the contact can be indirect. Some binding calls cover weakened binding; strength is not graded here. Values belong to the substance of their own block, whether it stands above or below them.

The chains behind the UniProt entries cited, without tags or fusion partners. Where a name states a change or a piece, a line headed by the entry shows the natural chain unless it says otherwise. A line that says so, or that is headed by a name, gives the form on record, which may keep a tag or linker.
UniProt Q9R0N7: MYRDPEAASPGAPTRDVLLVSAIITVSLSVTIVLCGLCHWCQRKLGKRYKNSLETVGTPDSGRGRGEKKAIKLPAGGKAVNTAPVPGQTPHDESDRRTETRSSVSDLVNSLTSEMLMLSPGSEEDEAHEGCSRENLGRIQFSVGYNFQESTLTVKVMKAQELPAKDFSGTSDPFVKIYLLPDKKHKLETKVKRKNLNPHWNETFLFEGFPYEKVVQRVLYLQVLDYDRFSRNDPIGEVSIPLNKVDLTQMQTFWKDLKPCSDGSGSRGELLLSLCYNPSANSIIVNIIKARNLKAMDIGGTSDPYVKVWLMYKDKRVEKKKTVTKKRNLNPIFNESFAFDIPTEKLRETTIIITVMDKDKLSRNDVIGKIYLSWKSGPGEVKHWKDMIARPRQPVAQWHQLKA
Synaptotagmin-7β expressed in tsA-201 cells (Q9R0N7-3, form named): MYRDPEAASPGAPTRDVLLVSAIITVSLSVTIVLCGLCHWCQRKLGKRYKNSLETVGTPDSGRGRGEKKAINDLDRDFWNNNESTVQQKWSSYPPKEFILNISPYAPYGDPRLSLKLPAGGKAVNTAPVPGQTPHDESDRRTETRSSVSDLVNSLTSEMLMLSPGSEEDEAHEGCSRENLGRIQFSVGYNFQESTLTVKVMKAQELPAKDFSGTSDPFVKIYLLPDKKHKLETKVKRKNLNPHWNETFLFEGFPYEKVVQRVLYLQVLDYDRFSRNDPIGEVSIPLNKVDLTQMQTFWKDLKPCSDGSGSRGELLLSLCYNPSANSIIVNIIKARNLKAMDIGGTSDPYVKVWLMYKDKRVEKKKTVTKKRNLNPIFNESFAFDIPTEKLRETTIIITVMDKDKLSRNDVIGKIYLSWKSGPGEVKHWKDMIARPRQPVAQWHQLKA
Synaptotagmin-7γ expressed in tsA-201 cells (Q9R0N7-2, form named): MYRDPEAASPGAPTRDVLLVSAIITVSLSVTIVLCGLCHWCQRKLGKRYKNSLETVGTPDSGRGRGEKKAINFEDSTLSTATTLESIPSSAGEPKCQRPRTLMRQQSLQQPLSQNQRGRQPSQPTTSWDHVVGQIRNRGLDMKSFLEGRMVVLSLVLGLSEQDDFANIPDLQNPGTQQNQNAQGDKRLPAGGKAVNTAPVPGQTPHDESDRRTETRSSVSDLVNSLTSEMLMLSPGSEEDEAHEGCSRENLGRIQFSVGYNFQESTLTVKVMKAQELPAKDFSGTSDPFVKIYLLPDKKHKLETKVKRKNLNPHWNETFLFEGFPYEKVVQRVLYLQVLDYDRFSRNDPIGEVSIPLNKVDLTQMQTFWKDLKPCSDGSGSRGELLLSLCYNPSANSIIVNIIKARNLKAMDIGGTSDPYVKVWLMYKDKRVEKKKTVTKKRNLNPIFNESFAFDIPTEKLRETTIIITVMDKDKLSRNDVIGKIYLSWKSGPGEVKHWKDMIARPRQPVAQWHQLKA
UniProt P97445: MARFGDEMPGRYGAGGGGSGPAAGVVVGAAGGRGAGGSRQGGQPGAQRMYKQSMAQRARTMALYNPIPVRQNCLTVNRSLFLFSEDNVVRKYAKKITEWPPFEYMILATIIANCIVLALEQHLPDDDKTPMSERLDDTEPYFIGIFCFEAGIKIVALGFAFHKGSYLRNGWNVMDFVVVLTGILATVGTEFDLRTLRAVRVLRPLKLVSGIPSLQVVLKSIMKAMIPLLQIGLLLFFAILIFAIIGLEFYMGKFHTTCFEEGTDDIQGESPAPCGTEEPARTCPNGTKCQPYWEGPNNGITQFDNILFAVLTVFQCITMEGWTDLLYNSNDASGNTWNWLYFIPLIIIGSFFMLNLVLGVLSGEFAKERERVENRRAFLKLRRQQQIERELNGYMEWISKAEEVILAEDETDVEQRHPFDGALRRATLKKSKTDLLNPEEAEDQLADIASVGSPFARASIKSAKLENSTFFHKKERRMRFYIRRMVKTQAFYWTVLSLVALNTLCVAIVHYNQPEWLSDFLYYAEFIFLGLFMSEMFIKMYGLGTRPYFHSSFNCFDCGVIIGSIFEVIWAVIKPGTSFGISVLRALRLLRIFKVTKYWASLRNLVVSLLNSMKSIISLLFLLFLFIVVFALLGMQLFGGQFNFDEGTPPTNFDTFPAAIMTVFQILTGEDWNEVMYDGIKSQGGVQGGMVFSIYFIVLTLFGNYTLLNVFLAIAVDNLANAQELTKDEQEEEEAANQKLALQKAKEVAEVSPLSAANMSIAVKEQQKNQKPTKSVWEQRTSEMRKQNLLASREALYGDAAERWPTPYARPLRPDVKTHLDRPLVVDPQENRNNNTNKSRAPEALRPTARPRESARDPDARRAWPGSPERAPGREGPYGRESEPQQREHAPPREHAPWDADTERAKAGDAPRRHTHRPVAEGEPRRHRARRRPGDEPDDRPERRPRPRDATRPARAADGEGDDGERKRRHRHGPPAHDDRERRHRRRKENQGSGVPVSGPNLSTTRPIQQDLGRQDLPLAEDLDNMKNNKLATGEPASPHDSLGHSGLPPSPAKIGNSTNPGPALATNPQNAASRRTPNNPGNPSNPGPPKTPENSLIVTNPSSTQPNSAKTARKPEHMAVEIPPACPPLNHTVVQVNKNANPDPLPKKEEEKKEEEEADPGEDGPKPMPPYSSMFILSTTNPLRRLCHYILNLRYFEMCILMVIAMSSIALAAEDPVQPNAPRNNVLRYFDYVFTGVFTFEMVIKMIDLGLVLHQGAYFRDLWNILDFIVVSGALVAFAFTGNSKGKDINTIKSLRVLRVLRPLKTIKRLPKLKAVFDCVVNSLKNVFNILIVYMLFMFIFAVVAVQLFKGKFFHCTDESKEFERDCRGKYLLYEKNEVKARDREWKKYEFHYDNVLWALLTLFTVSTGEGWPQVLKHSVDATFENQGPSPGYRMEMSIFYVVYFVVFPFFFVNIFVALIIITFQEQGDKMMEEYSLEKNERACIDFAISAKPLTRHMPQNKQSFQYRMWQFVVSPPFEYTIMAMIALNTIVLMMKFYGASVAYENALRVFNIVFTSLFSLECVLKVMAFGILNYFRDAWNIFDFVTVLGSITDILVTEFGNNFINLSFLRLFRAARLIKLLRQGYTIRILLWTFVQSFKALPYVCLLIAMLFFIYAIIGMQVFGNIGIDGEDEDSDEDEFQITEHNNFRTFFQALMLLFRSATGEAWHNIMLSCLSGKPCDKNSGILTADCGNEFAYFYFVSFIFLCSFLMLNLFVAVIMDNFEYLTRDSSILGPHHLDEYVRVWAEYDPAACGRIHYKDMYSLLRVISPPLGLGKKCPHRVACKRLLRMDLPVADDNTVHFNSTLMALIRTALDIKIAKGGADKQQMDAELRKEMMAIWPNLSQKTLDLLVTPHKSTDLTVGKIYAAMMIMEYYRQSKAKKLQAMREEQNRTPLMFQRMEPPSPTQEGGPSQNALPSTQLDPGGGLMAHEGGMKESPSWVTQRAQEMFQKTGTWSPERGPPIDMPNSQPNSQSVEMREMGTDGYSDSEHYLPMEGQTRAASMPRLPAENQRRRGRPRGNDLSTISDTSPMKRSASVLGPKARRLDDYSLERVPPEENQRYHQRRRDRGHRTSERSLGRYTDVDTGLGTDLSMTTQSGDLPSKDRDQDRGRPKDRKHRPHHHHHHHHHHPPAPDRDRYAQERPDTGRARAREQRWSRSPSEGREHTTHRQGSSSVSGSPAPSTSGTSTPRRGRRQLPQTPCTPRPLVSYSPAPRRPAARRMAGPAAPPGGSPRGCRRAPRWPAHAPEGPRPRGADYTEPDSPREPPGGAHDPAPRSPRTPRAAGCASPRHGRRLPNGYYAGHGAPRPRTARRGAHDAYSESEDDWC
UniProt P54282: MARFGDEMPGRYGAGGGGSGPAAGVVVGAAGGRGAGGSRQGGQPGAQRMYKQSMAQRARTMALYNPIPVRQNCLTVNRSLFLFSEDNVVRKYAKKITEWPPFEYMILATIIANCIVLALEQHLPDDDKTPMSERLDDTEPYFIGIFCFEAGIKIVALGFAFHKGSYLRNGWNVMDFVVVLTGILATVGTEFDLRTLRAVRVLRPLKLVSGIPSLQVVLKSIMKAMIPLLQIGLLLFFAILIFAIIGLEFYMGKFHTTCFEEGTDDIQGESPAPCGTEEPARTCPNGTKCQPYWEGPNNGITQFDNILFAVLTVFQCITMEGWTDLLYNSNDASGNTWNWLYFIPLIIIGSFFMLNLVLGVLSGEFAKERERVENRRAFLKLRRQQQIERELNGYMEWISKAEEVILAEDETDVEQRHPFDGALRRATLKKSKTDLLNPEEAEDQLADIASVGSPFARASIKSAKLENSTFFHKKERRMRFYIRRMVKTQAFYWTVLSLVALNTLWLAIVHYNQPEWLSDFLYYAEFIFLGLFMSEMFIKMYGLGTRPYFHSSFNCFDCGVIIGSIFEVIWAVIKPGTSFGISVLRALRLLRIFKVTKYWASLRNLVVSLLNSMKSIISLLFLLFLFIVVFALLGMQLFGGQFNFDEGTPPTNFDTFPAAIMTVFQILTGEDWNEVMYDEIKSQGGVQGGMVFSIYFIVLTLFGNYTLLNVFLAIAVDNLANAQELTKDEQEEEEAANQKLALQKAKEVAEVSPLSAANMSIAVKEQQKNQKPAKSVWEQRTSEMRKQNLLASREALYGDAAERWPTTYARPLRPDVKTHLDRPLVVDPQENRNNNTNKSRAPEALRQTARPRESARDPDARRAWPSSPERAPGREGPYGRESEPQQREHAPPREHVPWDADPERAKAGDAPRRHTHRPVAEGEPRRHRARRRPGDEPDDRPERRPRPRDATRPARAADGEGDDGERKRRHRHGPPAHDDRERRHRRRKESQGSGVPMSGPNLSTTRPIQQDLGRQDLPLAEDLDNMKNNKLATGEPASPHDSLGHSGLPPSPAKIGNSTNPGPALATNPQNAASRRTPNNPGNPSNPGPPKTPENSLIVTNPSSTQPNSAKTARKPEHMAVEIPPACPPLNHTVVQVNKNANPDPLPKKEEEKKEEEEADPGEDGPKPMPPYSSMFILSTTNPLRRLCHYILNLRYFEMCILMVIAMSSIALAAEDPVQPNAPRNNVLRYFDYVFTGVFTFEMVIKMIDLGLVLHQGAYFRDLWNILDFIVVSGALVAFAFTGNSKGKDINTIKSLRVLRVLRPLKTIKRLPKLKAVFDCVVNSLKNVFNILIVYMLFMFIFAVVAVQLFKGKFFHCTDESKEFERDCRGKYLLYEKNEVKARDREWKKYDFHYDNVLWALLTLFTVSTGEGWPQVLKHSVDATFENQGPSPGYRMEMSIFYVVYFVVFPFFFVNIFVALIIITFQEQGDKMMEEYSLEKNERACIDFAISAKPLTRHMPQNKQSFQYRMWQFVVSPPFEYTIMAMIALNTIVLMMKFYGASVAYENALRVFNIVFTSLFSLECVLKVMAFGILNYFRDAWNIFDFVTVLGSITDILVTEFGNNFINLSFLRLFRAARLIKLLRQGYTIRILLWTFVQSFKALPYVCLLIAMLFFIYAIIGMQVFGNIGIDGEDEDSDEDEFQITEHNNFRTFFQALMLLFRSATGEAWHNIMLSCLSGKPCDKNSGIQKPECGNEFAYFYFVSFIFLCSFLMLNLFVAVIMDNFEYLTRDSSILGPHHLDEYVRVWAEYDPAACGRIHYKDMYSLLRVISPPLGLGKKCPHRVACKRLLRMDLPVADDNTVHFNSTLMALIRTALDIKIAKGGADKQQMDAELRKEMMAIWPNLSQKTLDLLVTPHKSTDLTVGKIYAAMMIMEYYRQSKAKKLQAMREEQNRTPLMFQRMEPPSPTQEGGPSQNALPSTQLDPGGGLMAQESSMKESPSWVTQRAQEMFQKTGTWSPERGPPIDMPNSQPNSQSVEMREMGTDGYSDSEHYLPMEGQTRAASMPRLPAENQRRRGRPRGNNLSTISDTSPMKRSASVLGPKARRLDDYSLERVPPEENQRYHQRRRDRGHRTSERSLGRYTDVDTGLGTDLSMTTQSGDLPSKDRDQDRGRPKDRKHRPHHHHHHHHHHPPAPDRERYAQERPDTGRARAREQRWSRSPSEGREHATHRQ
UniProt P21707: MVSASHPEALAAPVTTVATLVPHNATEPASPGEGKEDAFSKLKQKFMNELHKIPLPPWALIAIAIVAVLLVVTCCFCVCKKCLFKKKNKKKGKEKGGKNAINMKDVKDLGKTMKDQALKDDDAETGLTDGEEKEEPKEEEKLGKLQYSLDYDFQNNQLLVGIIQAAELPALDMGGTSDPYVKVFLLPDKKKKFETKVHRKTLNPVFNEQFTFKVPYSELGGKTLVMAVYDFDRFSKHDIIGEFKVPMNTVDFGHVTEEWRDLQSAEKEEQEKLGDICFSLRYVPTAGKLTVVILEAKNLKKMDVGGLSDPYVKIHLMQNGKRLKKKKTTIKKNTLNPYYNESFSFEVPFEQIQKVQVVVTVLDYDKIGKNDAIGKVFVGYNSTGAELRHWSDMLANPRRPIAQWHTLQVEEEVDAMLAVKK

Experiments:
[1] = biological target: Synaptotagmin-7 (Syt-7α), endogenous in mouse brain membranes (mouse (endogenous in brain)) (UniProt Q9R0N7); experiment: co-IP; mouse brain (membrane) lysate; Dynabeads Protein G with anti-Cav2.1 or anti-Syt-7 antibody; TBS with Ca2+-buffering system (50 mM Tris/HCl, 140 mM NaCl, 50 mM HEPES pH 7.2, 5 mM HydroxyEDTA, 0.3% Triton X-100, Ca2+ 10 μM to 5 mM); 4°C overnight; immunoblot
[2] = biological target: Synaptotagmin-7β expressed in tsA-201 cells (UniProt Q9R0N7); experiment: co-IP; lysates of transfected tsA-201 cells; Dynabeads Protein G with anti-Cav2.1 or anti-Syt-7 antibody; TBS with Ca2+-buffering system, 0.3% Triton X-100; 4°C overnight; immunoblot
[3] = biological target: Synaptotagmin-7γ expressed in tsA-201 cells (UniProt Q9R0N7); experiment: as above
[4] = biological target: Synaptotagmin-7α expressed in tsA-201 cells (UniProt Q9R0N7); experiment: as above
[5] = biological target: Cav2.1 channel (α1A subunit), endogenous in mouse brain membranes (mouse (endogenous in brain)) (UniProt P97445); experiment: co-IP; mouse brain (membrane) lysate; Dynabeads Protein G with anti-Cav2.1 or anti-Syt-7 antibody; TBS with Ca2+-buffering system (50 mM Tris/HCl, 140 mM NaCl, 50 mM HEPES pH 7.2, 5 mM HydroxyEDTA, 0.3% Triton X-100, Ca2+ 10 μM to 5 mM); 4°C overnight; immunoblot
[6] = biological target: Cav2.1 channel (α1A subunit), endogenous in mouse brain membranes (mouse (endogenous in brain)) (UniProt P97445); experiment: co-IP; modified experimental protocol (conditions not told); mouse brain lysate; three different buffered concentrations of free Ca2+
[7] = biological target: Cav2.1 channel α1A subunit expressed in tsA-201 cells (UniProt P54282); experiment: co-IP; modified experimental protocol (conditions not told); lysates of co-transfected tsA-201 cells; Cav2.1-specific antibodies as precipitating antibodies
[8] = biological target: Cav2.1 channel α1A subunit expressed in tsA-201 cells (UniProt P54282); experiment: co-IP; lysates of transfected tsA-201 cells; Dynabeads Protein G with anti-Cav2.1 or anti-Syt-7 antibody; TBS with Ca2+-buffering system, 0.3% Triton X-100; 4°C overnight; immunoblot
[9] = biological target: GST-Syt-7α fusion protein (full-length Syt-7α) (UniProt Q9R0N7); experiment: pull-down; GST-Syt-7α immobilised on glutathione-Sepharose beads, incubated with purified His-synprint proteins 1 h at 4°C; TBS-Ca2+ buffering system with 0.1% Triton X-100, free Ca2+ 10 μM to 1 mM; eluted with 15 mM reduced glutathione; anti-His immunoblot; both purified

binding [2]: binds | binding [3]: binds | binding [4]: binds
Substance: Cav2.1 channel α1A subunit expressed in tsA-201 cells (from UniProt P54282 1-2212)

binding [9]: binds
Substance: His-Cav2.1 synprint (724–981) (from UniProt P54282 724-981) (domain or fragment)

binding [7]: binds
Substance: Synaptotagmin-1 expressed in tsA-201 cells (from UniProt P21707 1-421)

More lines, now with the values behind:

Substance: Cav2.1 channel (α1A subunit), endogenous in mouse brain membranes (from UniProt P97445 1-2368)
binding [1]: binds

Substance: Synaptotagmin-7 (Syt-7α), endogenous in mouse brain membranes (from UniProt Q9R0N7-1 1-403)
binding [5]: binds | binding [6]: binds

Substance: Synaptotagmin-7α expressed in tsA-201 cells (from UniProt Q9R0N7-1 1-403)
binding [7]: binds | binding [8]: binds

Substance: Synaptotagmin-7γ expressed in tsA-201 cells (from UniProt Q9R0N7-2 1-518)
binding [8]: binds

Substance: Synaptotagmin-7β expressed in tsA-201 cells (from UniProt Q9R0N7-3 1-447)
binding [8]: binds
